Data as given in PubChem BioAssay AID1159578 (Peter MacCallum Cancer Centre, 2015).

Purpose: 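Knock-downs that alter how fast lymphatic endothelial cells migrate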 (primary screen)
Cells: human lymphatic endothelial cells
Reagent: siRNA pool against human genes, 40 nM
Time to read-out: 48 h after transfection
Measured: 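High-content imaging of dye-stained cells in a scratch assay measures filled wound area and nuclei per well; duplicate means given as ratio to mock and robust z-score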
Reading the numbers: migration robust z-score: higher = faster migration into the scratch; nuclei per well: higher = more cells in the well
Hit rule: 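Migration changed when robust z exceeds 2 or falls below -2 and mean nuclei number is at least 3300; otherwise not called changed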
Calls: active = migration changed; inactive = no migration change, or too few cells
The deposit covers about 18,000 reagents; this is an unselected part. About 1,030 of all reagents (5.7%) were called active. 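Inactive calls also include pools with fewer than 3300 nuclei, whose migration was not assessed.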 Raw values are not corrected between plates. Not all columns of the deposit are shown.

DRAM1
- migration robust z-score: -1.47
- nuclei per well, duplicate mean: 6012
- Call: inactive

SCYL2
- migration robust z-score: 1.55
- nuclei per well, duplicate mean: 4853
- Call: inactive

ETFB
- migration robust z-score: 0.8
- nuclei per well, duplicate mean: 6377
- Call: inactive

CD72
- migration robust z-score: -0.44
- nuclei per well, duplicate mean: 7438
- Call: inactive

SHCBP1
- migration robust z-score: -0.33
- nuclei per well, duplicate mean: 6338
- Call: inactive

GJD2
- migration robust z-score: -0.96
- nuclei per well, duplicate mean: 6528
- Call: inactive

TCEAL4
- migration robust z-score: 0.24
- nuclei per well, duplicate mean: 6108
- Call: inactive

ATP4A
- migration robust z-score: 0.18
- nuclei per well, duplicate mean: 5258
- Call: inactive

TMED10
- migration robust z-score: -1.34
- nuclei per well, duplicate mean: 2986
- Call: inactive

P4HTM
- migration robust z-score: -0.44
- nuclei per well, duplicate mean: 6286
- Call: inactive

HNRNPA1
- migration robust z-score: 0.1
- nuclei per well, duplicate mean: 5830
- Call: inactive

ZNF84
- migration robust z-score: 1.58
- nuclei per well, duplicate mean: 6214
- Call: inactive

FAM227B
- migration robust z-score: -0.11
- nuclei per well, duplicate mean: 7306
- Call: inactive

OLFM2
- migration robust z-score: 1.75
- nuclei per well, duplicate mean: 6436
- Call: inactive

In a second layout: entries from further up
{"gene": "SCYL2", "migration robust z-score": 1.55, "nuclei per well, duplicate mean": 4853, "Call": "inactive"}
{"gene": "ETFB", "migration robust z-score": 0.8, "nuclei per well, duplicate mean": 6377, "Call": "inactive"}
